The results in this text go back to paper PMC6886185.

Protein sequences, listed by entry. Tags and fused reporters are not part of them.
UniProt Q14240: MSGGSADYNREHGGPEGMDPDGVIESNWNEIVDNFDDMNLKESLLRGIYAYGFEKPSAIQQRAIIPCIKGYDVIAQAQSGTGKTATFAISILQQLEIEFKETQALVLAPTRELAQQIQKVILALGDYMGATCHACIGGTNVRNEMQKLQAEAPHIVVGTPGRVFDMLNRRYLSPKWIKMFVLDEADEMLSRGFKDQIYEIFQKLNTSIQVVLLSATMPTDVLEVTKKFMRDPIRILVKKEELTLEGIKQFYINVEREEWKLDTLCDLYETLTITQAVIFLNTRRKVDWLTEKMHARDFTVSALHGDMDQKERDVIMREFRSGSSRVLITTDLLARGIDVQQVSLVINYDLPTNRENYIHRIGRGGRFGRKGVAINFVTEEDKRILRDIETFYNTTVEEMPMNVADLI

This test addresses eIF4A2 (endogenous) (human (endogenous in HeLa)) (UniProt Q14240). The test is described as follows: affinity purification with mass spectrometry; IP of endogenous eIF4A2 (and eIF4A1, rabbit IgG) from precleared HeLa cytoplasmic lysate; 20 mM Tris-HCl pH 7.5, 200 mM NaCl, 2.5 mM MgCl2, 0.5% Triton X-100, 4C; protein G Dynabeads; LC-MS/MS, emPAI.

These are yes or no findings as the source states them, for the method shown. In cells and extracts the contact can be indirect. A yes stands for co-enrichment or nearness to the bait. Other partners may have been found.

B1: CLP1 (protein, UniProt Q92989 1-425)
chain: MGEEANDDKKPTTKFELERETELRFEVEASQSVQLELLTGMAEIFGTELTRNKKFTFDAGAKVAVFTWHGCSVQLSGRTEVAYVSKDTPMLLYLNTHTALEQMRRQAEKEEERGPRVMVVGPTDVGKSTVCRLLLNYAVRLGRRPTYVELDVGQGSVSIPGTMGALYIERPADVEEGFSIQAPLVYHFGSTTPGTNIKLYNKITSRLADVFNQRCEVNRRASVSGCVINTCGWVKGSGYQALVHAASAFEVDVVVVLDQERLYNELKRDLPHFVRTVLLPKSGGVVERSKDFRRECRDERIREYFYGFRGCFYPHAFNVKFSDVKIYKVGAPTIPDSCLPLGMSQEDNQLKLVPVTPGRDMVHHLLSVSTAEGTEENLSETSVAGFIVVTSVDLEHQVFTVLSPAPRPLPKNFLLIMDIRFMDLK
Consider B1, for which the binding entry is reported as “binds”.
